Laboratory results taken from the supplement of paper PMC11732987, “Enantioselective OTUD7B fragment discovery through chemoproteomics screening and high-throughput optimisation” (Communications Chemistry, 2025).
Some of the results follow. The data scatter; read single values as rough.

The chains behind the UniProt entries cited, without tags or fusion partners. Where a name states a change or a piece, a line headed by the entry shows the natural chain unless it says otherwise. Residues count along the entry.
UniProt P09884, 1171-1191: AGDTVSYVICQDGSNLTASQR
UniProt Q8IYS1: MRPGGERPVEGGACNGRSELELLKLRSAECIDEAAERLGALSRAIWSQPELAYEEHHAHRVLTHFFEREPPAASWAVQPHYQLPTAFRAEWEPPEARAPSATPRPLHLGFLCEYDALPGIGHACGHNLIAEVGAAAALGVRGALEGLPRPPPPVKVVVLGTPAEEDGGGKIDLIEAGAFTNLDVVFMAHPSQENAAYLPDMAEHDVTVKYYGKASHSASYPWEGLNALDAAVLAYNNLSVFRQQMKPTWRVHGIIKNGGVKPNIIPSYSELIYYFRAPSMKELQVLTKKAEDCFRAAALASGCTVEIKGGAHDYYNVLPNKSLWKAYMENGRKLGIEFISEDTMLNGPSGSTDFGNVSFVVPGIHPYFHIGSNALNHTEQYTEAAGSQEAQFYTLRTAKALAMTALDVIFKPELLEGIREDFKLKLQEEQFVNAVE
UniProt P42338: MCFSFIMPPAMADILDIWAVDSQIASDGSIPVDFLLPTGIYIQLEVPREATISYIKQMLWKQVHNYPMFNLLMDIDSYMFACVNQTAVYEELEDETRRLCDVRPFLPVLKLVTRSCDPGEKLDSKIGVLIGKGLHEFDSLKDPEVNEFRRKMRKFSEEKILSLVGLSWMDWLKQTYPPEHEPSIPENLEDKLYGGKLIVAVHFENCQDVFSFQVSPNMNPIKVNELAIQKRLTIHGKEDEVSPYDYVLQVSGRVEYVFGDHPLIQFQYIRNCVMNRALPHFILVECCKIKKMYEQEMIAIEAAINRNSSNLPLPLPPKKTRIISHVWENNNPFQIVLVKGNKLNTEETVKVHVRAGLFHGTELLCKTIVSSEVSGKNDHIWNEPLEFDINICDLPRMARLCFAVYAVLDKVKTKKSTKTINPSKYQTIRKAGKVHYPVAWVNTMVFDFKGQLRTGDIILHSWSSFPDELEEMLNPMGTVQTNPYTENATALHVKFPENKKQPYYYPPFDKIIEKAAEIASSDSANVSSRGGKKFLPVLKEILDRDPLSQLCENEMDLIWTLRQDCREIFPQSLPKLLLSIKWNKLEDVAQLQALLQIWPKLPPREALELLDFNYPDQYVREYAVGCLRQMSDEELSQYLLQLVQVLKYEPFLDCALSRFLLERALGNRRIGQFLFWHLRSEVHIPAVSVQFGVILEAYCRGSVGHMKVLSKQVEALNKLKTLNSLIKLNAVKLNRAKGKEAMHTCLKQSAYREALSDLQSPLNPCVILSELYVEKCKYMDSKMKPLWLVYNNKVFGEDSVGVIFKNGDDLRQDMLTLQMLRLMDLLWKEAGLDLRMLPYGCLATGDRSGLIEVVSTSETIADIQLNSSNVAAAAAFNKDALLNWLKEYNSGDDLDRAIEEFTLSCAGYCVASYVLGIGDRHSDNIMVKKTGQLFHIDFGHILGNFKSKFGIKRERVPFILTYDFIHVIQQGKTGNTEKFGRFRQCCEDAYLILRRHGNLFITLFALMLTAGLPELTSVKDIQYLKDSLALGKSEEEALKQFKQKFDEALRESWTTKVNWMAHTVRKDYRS
UniProt Q9UBT6: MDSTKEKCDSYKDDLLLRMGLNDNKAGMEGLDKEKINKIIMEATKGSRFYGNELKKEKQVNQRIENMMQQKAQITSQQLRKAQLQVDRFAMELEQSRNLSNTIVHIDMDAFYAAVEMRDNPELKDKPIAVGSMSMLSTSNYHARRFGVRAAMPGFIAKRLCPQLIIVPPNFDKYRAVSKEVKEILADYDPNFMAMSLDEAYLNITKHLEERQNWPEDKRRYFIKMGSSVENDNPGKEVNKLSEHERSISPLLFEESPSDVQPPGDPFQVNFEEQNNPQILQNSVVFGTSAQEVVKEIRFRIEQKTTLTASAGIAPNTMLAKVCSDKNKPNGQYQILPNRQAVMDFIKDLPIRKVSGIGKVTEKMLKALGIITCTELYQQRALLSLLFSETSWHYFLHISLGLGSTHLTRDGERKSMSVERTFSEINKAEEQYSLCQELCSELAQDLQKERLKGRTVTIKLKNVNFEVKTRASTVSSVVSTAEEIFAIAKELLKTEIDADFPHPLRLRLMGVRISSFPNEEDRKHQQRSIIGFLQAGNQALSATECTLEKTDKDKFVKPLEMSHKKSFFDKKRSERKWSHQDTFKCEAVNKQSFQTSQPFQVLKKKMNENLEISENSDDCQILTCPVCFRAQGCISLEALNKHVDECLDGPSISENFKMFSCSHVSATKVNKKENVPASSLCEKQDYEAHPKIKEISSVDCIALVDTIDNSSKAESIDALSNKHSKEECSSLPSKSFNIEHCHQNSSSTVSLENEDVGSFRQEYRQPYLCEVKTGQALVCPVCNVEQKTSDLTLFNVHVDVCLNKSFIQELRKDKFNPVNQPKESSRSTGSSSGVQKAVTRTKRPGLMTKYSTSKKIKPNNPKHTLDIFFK
UniProt P37287: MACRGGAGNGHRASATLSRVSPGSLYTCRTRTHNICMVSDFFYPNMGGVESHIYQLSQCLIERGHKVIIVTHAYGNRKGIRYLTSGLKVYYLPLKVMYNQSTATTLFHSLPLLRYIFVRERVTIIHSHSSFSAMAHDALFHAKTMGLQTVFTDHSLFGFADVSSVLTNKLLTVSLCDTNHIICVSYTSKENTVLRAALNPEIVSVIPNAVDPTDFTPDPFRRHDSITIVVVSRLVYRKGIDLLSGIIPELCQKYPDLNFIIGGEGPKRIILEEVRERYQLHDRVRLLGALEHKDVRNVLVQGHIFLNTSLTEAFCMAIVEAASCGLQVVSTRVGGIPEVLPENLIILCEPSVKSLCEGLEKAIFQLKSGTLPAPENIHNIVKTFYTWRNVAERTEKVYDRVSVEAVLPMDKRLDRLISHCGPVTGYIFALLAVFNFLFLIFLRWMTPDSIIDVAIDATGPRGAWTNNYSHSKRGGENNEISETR
UniProt Q8IWE5: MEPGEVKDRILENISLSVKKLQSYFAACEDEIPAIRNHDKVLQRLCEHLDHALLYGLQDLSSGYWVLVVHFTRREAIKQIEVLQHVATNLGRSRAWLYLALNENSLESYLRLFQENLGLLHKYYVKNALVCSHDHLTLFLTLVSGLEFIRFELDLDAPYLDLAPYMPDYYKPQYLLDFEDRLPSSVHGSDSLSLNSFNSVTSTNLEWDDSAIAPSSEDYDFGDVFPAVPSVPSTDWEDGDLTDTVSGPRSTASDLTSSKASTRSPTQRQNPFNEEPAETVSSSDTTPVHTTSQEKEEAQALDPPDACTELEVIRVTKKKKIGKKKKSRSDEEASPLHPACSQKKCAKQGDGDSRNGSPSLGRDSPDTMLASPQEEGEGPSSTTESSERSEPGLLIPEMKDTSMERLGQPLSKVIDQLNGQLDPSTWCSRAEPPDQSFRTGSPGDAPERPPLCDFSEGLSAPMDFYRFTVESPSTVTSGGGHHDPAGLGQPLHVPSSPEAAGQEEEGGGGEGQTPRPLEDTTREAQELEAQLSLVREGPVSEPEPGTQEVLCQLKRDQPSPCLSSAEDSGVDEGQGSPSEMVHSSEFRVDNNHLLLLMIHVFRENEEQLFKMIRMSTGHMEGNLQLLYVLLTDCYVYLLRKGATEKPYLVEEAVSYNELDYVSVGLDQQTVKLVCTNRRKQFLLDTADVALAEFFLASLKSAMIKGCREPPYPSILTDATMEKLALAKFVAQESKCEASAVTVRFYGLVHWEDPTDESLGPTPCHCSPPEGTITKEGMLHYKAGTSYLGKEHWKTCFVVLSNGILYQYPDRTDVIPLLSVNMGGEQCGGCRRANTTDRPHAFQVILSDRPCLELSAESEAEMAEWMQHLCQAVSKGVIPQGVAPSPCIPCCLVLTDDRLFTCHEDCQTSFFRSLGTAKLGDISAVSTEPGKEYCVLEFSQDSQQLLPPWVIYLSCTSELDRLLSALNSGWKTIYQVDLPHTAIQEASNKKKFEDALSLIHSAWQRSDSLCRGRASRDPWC
UniProt O14832: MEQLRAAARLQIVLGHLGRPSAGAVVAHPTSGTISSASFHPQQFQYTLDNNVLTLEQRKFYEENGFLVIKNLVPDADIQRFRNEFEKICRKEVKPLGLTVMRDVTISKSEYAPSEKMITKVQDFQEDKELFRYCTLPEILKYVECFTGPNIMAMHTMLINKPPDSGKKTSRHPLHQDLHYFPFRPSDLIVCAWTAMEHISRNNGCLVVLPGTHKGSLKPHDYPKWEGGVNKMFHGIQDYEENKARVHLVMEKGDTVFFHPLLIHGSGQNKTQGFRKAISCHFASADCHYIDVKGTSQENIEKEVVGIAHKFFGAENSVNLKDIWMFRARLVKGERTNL
UniProt Q6P5Z2: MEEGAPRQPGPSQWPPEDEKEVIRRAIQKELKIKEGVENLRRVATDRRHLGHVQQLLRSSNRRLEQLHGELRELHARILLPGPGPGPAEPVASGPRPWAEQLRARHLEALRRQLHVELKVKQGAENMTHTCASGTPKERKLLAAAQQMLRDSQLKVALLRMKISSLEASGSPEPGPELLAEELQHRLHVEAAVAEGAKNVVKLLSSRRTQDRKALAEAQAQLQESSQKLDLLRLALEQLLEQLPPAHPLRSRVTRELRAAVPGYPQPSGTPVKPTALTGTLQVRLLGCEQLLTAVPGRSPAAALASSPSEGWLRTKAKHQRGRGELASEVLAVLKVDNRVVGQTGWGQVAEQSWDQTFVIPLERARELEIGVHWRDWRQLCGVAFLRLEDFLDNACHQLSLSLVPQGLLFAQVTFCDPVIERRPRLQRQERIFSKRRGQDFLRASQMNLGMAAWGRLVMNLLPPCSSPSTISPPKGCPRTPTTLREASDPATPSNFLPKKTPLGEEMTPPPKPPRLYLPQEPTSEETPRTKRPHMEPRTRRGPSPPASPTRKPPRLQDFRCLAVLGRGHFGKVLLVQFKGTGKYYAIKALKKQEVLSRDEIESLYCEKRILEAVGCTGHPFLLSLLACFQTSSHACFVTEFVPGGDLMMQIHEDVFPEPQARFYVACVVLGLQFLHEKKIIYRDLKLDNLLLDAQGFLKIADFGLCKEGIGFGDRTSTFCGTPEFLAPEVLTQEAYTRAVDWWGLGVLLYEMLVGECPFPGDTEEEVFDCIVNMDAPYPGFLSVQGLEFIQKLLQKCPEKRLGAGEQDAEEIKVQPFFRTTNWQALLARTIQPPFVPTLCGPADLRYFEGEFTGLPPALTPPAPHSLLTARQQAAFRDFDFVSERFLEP
UniProt Q9UBF8: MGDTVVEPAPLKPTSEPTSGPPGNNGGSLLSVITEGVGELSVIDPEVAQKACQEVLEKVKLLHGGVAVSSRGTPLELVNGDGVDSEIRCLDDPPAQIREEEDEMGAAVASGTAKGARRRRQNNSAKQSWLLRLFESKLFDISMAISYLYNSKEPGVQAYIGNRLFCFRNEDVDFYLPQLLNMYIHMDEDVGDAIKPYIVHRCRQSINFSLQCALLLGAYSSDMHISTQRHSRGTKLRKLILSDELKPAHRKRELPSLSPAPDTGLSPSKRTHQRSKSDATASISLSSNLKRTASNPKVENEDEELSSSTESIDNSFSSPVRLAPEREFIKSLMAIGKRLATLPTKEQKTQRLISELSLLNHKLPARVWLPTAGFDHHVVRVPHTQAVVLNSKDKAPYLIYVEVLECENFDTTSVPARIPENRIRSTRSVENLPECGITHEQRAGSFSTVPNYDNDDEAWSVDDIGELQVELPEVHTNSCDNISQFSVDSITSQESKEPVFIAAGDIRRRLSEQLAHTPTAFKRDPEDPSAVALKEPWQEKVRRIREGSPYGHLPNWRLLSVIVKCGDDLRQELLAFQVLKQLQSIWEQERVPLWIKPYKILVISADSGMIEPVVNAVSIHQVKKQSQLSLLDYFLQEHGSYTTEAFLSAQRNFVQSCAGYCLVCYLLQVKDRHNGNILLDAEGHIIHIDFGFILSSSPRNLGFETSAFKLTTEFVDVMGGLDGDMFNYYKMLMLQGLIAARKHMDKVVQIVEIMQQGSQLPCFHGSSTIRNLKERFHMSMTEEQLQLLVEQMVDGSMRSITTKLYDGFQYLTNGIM
UniProt P53350: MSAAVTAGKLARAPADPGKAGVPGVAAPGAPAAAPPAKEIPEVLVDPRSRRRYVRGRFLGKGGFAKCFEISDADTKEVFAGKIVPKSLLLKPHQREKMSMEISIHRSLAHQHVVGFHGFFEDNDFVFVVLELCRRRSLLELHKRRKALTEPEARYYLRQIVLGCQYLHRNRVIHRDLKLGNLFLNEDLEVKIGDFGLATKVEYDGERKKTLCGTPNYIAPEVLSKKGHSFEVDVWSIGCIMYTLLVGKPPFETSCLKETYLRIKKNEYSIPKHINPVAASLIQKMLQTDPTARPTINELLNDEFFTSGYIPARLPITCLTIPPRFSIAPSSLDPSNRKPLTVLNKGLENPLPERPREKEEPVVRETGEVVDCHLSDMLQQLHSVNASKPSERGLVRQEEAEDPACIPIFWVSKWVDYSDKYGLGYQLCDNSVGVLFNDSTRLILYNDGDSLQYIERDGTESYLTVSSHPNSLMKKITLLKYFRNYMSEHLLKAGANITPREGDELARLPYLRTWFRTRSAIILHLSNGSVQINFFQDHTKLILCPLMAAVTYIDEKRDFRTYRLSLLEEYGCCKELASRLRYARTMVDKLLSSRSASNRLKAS
UniProt P19174, 1106-1125: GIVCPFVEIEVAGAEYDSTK
UniProt O75928, 444-464: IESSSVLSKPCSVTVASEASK

Assays:
[1] = compound: ClCC(=O)N[C@@H]1CCCc2ccccc12; assay: log2 mean competition ratio of IA-DTB cysteine labelling (DMSO/compound) (log2 ratio); higher = stronger cysteine engagement by compound; conditions: treatment time: 4 h, cell line lysate: HEK293T
Procedure: (§1)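 IA-DTB competitive cysteine chemoproteomics in HEK293T RIPA lysate. Lysates were treated with compound 29 or 30 at 50 or 200 µM for 4 h, then IA-DTB (500 µM, 1 h), trypsin-digested, NeutrAvidin-enriched and analysed by diaPASEF. Competition ratio = intensity DMSO / intensity compound (n=4 treated, n=64 DMSO); binding: mean log2 CR ≥ 1 and p ≤ 0.05 plus QC filters. Target is the cysteine site.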

[2] = compound: ClCC(=O)N[C@H]1CCCc2ccccc12; assay: as above; conditions: treatment time: 4 h, cell line lysate: HEK293T
Procedure: as §1

Target	log2 mean competition ratio ([1]; 50 µM)	log2 mean competition ratio ([1]; 200 µM)	log2 mean competition ratio ([2]; 50 µM)	log2 mean competition ratio ([2]; 200 µM)
PMS2 C216 (UniProt P54278)	0.505	-0.0757	0.475	-0.021
POLA1 C1085 (UniProt P09884)	0.0381	0.0919	-0.194	0.228
PM20D2 C14 (UniProt Q8IYS1)	0.429	0.543	0.54	0.0142
PIP4P1 C87 (UniProt Q86T03)	-0.189	-0.165	-0.769	0.00811
PHF6 C305 (UniProt Q8IWS0)	0.301	0.0974	0.395	-0.0458
PIAS1 C49 (UniProt O75925)	-0.146	0.0266	-0.252	-0.152
PIGH C26 (UniProt Q14442)	0.079	0.209	-0.0469	0.0587
PHF5A C85 (UniProt Q7RTV0)	-0.0129	-0.197	0.0635	-0.135
PLAAT3 C113	0.172	0.842		
POC1B C418 (UniProt Q8TC44)	-0.14	0.0756	-0.076	0.334
POLR1E C14 (UniProt Q9GZS1)	0.403	-0.0666	0.214	-0.0765
POLR1A C1699 (UniProt O95602)	0.0877	-0.147	0.139	-0.00748
PIK3CB C626 (UniProt P42338)	-0.0377	0.0757	-0.25	0.0464
POLK C681 (UniProt Q9UBT6)	0.109	-0.33	-0.0063	-0.278
PIGA C28 (UniProt P37287)	0.704	0.463		0.184
PMVK C38 (UniProt Q15126)	0.0558	0.0327	-0.207	-0.00907
PLEKHM2 C735 (UniProt Q8IWE5)	-0.305	-0.00149	-0.0578	-0.0151
POLA1 C1458 (UniProt P09884)	0.0153	0.0655	0.358	0.0524
PLEC C4454 (UniProt Q15149)	-0.521	-0.403	0.016	-0.597
PLEKHA2 C191 (UniProt Q9HB19)	0.0637	0.135	0.279	0.243
PHYH C205 (UniProt O14832)	-0.0534	-0.00965	-0.477	0.0506
PODXL C344 (UniProt O00592)	-0.226	0.0377	-0.311	0.0375

Shown with bars between the fields: entries from further up.
Target | log2 mean competition ratio ([1]; 50 µM) | log2 mean competition ratio ([1]; 200 µM) | log2 mean competition ratio ([2]; 50 µM) | log2 mean competition ratio ([2]; 200 µM)
PM20D2 C14 (UniProt Q8IYS1) | 0.429 | 0.543 | 0.54 | 0.0142
PLAAT3 C113 | 0.172 | 0.842 |  | 
PMVK C38 (UniProt Q15126) | 0.0558 | 0.0327 | -0.207 | -0.00907

(further entries)

Target	log2 mean competition ratio ([1]; 50 µM)	log2 mean competition ratio ([1]; 200 µM)	log2 mean competition ratio ([2]; 50 µM)	log2 mean competition ratio ([2]; 200 µM)
POLA1 C1180 (UniProt P09884)	-0.411	0.0551	-0.0234	0.00817
PLEKHM2 C551 (UniProt Q8IWE5)	-0.594	-0.199	-0.467	-0.116
PIK3C2A C908 (UniProt O00443)	0.333	-0.154		-0.203
PLXNB2 C1484 (UniProt O15031)	-0.0478	0.0854	-0.4	-0.0154
PKN3 C840 (UniProt Q6P5Z2)	-0.128	0.0121	-0.0526	0.0431
PLEKHA5 C891 (UniProt Q9HAU0)	0.0574	0.109	-0.369	0.0115
PI4KB C435 (UniProt Q9UBF8)	-0.0921	-0.0754	-0.124	-0.111
PLK1 C212 (UniProt P53350)	0.389	0.412	0.442	0.406
PLOD2 C494 (UniProt O00469)	-0.177	0.404	-0.277	0.399
PIP4K2C C104 (UniProt Q8TBX8)	0.00677	-0.0342		-0.116
PLEKHM2 C340 (UniProt Q8IWE5)	-0.0615	0.15	0.0207	0.0291
PLCG1 C1109 (UniProt P19174)	-0.572	-0.137	-0.0247	-0.205
PKN1 C662 (UniProt Q16512)	-0.327	0.117	-0.0848	0.21
PIAS2 C454 (UniProt O75928)	-0.118	-0.0689	-0.508	-0.17
PKP2 C416 (UniProt Q99959)	-0.225	-0.441		-0.23
POLD1 C761 (UniProt P28340)	-0.138	0.205	-0.0837	0.386
PML C389 (UniProt P29590)	-0.143	0.0529	-0.321	0.0483
PISD C300 (UniProt Q9UG56)	0.024	-0.211	0.03	-0.265
PIK3R4 C195 (UniProt Q99570)	-0.0339	0.164	0.0889	0.0914
PKP2 C647 (UniProt Q99959)	-0.0535	0.103	0.386	0.241
PICK1 C145 (UniProt Q9NRD5)	-0.0265	0.29	-0.387	0.14
PHLPP1 C1312 (UniProt O60346)	-0.0375	0.264	-0.4	0.238
